These are yes or no findings as the source states them, for the method shown. Binding seen in cells or lysates may run through a third protein. Some entries that bind do so weakly or less than the wild type.
How the values were obtained:
V5-tagged PTPRS [1] = molecular target: V5-tagged PTPRS (UniProt B0V2N1); assay: co-IP; tsA201 cells co-expressing PTPRS-V5, T178B-Myc-FLAG and an HA-tagged neurexin (all three constituents); CL-91-solubilised membranes; anti-V5, anti-HA or anti-FLAG APs, Western blot
V5-tagged PTPRS [2] = molecular target: V5-tagged PTPRS (UniProt B0V2N1); assay: co-IP; tsA201 cells, pairwise expression (two of PTPRS-V5, T178B-Myc-FLAG, HA-tagged neurexin; neurexin with PTPRS without T178B); CL-91-solubilised membranes; anti-V5, anti-HA or anti-FLAG APs, Western blot

Protein sequences, listed by entry. Tags and fused reporters are not part of them. Residues count along the entry.
UniProt B0V2N1, residues 30-1907: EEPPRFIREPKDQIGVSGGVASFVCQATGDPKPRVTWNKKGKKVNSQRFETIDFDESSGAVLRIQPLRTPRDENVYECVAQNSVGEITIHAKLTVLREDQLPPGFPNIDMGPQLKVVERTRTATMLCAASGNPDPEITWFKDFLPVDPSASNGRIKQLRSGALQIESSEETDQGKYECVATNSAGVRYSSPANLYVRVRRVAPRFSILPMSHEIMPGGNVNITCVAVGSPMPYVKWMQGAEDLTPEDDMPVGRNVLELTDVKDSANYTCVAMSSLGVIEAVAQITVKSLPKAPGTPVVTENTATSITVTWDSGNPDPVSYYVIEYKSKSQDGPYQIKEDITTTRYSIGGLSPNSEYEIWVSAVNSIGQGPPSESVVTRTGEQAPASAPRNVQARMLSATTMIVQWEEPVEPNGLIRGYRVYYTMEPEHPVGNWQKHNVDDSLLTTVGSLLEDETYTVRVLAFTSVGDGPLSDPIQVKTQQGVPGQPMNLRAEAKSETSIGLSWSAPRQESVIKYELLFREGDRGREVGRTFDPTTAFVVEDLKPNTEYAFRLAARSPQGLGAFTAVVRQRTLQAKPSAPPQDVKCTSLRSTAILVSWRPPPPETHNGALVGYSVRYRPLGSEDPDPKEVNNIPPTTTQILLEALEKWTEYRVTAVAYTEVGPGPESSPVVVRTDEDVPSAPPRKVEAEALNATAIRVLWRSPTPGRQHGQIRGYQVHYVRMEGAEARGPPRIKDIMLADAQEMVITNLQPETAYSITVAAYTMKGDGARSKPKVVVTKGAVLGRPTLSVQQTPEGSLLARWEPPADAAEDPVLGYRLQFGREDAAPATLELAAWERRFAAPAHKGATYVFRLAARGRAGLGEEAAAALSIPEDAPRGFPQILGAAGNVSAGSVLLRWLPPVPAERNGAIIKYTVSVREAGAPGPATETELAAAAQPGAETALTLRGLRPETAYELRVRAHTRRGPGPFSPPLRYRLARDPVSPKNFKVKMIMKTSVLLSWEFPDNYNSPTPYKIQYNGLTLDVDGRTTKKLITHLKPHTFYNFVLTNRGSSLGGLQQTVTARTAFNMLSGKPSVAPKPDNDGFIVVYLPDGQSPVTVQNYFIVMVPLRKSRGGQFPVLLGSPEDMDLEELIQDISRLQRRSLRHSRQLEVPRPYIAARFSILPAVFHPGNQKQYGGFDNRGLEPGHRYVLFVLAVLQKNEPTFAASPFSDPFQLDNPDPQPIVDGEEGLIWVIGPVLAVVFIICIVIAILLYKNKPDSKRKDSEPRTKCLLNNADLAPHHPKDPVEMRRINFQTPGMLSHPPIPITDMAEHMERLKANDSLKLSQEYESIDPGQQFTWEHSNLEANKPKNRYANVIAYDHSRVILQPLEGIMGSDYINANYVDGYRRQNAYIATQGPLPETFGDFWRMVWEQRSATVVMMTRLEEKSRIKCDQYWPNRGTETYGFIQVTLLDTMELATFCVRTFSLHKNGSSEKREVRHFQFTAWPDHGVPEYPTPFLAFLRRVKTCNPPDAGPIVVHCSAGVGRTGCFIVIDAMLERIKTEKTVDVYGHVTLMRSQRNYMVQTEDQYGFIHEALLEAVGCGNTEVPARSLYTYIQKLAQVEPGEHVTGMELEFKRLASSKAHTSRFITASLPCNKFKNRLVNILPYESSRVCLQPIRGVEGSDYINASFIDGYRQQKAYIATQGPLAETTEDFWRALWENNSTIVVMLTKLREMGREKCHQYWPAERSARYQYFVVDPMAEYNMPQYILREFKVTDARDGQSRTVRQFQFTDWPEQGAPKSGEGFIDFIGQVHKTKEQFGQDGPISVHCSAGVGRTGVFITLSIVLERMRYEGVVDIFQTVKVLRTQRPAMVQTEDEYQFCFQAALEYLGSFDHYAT
UniProt Q9CS84, residues 31-1514: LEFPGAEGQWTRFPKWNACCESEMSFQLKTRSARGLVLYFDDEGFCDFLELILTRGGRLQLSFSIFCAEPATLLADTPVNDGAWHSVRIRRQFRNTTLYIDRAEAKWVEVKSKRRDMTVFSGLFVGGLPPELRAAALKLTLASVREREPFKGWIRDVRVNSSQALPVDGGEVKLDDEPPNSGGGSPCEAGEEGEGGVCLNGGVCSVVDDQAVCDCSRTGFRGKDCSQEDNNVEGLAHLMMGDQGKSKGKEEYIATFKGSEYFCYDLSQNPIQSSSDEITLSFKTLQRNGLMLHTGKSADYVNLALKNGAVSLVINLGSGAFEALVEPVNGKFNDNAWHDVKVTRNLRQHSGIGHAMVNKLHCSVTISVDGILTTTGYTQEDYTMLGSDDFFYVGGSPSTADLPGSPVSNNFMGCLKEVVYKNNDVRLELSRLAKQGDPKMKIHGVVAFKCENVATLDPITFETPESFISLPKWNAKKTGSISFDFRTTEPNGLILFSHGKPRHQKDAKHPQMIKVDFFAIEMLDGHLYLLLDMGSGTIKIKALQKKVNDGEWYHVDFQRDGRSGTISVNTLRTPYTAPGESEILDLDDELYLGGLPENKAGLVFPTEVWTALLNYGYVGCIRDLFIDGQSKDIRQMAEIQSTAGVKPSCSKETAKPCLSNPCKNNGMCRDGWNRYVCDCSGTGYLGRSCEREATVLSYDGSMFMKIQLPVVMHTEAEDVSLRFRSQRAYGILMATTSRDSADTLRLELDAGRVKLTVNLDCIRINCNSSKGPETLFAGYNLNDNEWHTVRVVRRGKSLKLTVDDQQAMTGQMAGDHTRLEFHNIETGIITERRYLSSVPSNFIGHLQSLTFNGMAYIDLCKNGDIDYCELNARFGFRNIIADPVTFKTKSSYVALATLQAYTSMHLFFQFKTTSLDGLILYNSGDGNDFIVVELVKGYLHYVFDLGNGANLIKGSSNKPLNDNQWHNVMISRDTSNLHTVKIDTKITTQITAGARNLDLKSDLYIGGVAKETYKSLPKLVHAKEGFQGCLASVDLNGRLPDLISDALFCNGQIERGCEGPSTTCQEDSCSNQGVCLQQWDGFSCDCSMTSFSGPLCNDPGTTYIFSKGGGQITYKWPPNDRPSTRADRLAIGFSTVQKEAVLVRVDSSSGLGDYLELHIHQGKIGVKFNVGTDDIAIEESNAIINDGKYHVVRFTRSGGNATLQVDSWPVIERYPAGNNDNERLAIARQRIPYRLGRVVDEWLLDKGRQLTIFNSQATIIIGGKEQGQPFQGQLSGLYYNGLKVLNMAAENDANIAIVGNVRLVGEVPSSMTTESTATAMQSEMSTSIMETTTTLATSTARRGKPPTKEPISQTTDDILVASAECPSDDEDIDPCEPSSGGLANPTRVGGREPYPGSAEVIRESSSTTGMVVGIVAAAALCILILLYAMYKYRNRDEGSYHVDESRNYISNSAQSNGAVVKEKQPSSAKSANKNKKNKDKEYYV
UniProt Q6P9K9, residues 28-1571: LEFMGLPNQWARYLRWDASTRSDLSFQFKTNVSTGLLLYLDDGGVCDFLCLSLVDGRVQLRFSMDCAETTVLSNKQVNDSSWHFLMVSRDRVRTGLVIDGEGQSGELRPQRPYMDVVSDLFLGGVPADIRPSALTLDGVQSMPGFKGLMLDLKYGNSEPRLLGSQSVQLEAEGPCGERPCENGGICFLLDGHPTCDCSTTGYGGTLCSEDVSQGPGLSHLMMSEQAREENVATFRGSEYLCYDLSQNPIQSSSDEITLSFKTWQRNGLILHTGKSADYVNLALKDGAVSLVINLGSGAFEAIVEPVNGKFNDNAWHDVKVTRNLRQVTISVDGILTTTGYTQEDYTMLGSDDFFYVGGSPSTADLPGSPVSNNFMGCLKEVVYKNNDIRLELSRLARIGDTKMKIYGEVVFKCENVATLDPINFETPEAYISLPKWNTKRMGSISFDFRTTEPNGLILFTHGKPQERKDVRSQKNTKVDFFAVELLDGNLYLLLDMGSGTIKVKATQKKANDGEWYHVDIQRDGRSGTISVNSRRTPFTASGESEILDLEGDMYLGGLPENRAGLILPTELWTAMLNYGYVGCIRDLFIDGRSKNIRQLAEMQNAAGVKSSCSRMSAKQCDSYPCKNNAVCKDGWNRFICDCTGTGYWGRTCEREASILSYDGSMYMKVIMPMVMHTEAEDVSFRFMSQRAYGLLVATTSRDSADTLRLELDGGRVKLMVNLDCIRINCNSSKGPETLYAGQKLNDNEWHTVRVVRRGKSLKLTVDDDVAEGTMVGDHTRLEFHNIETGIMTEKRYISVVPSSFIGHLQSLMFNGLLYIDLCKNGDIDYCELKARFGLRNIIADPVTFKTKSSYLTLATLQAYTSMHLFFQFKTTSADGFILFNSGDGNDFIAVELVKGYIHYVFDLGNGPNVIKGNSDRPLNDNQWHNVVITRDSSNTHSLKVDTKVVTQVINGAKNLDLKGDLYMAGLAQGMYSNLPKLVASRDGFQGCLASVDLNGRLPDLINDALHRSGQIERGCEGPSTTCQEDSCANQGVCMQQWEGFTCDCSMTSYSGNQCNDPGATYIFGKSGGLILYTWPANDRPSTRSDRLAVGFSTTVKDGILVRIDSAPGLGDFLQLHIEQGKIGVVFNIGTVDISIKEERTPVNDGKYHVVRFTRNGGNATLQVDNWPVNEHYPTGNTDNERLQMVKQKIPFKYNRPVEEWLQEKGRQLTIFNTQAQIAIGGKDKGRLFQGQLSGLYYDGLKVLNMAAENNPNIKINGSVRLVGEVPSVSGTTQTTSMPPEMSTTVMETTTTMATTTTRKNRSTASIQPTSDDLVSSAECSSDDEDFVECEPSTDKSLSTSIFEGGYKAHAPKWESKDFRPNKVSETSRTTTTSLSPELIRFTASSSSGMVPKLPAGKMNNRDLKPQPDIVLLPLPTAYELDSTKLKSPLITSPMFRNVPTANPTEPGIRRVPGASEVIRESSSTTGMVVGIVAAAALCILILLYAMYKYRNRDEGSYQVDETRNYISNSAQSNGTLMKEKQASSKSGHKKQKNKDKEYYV

Substance | binding (V5-tagged PTPRS [1]) | binding (V5-tagged PTPRS [2])
HA-tagged NRX1A (from UniProt Q9CS84 31-1514) | binds | binds weakly
NRX3A-HA (from UniProt Q6P9K9 28-1571) | binds | binds weakly

Reference: publication PMC13546301
